The source of these data is article PMC7383879, “HSI2/VAL1 and HSL1/VAL2 function redundantly to repress DOG1 expression in Arabidopsis seeds and seedlings”.

Amino acid sequences for entries named in this document (tags omitted). A change or cut given only in a name is not applied to a line headed by its entry.
UniProt Q8W4L5: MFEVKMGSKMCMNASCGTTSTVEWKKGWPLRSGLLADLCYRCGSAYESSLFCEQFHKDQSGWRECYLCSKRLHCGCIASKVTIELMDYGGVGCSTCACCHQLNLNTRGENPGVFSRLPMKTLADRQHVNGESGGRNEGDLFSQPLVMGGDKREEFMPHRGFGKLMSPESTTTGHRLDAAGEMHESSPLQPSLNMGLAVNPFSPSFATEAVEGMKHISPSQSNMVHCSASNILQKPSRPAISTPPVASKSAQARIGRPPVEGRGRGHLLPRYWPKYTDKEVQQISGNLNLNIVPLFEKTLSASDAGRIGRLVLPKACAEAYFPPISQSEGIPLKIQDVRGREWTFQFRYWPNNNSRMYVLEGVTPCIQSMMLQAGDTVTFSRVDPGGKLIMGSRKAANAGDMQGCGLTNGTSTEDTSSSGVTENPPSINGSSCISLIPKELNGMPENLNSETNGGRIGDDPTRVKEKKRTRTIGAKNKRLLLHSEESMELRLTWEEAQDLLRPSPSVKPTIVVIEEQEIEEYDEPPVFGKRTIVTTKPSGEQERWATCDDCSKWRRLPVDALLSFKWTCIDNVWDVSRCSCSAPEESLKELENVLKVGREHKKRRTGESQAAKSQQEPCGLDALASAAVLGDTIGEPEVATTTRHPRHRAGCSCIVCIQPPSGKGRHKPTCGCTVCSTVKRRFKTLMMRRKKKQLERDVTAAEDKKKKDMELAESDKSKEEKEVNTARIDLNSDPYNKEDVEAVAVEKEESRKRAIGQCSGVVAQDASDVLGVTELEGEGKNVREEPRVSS

No constants are given. Whether binding was seen depends on the method and setting. Binding seen in cells or lysates may run through a third protein. Binding calls can cover weak binding; strength is not graded here. Where a sequence is shown, tags or fusion partners need not be part of it.

What all share (experiment): split reporter; BiFC: nEYFP and cEYFP fusions, Agrobacterium GV2260 co-infiltrated into tobacco (N. benthamiana) leaves; YFP fluorescence by confocal microscopy after 2 d
Assay [1] has as its target T1, HSI2‐LIKE1 (HSL1), BiFC fusion (Arabidopsis thaliana) (UniProt Q5CCK4).
T1 sequence: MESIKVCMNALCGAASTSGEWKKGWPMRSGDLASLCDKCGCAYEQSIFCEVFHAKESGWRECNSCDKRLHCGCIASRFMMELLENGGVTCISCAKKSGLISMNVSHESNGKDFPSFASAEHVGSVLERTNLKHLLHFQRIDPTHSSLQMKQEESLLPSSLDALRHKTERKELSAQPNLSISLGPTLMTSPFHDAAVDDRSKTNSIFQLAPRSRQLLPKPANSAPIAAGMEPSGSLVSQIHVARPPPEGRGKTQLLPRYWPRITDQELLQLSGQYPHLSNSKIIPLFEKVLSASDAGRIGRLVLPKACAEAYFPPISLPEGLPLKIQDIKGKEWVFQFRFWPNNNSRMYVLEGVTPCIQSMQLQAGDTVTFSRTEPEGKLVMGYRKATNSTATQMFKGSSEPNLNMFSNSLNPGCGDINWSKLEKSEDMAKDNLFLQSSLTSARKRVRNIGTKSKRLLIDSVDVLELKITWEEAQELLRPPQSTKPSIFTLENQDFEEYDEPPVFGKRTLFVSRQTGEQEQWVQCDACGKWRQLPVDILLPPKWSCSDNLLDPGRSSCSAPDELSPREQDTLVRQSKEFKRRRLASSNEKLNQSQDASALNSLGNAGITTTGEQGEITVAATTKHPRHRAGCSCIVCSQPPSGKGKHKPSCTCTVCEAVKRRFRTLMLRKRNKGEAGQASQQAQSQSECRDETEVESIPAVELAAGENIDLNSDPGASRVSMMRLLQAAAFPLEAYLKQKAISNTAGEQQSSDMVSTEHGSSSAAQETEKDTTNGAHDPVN

Assay [2] addresses B3 domain of HSL1 (B3_(HSL1)), BiFC fusion (Arabidopsis thaliana).
The target of assay [3] is B3 domain of HSI2 (B3_(HSI2)), BiFC fusion (Arabidopsis thaliana).

“HSI2mB3 (HSI2 with a mutated B3 domain), BiFC fusion (from UniProt Q8W4L5)”: in assay [1], the binding entry was “binds”.

B1: LIKE HETEROCHROMATIN PROTEIN1 (LHP1), BiFC fusion (protein, UniProt Q946J8 1-445)
chain: MKGASGAVKKKPQVLNEAGEAETAVETVGESRKISGDGGFGSDDGGGGGGGGSGESILREIGDDRPTEDGDEEEEEDEDEDDGGDEEDEEGEGEGGQEERPKLDEGFYEIEAIRRKRVRKGKVQYLIKWRGWPETANTWEPLENLQSIADVIDAFEGSLKPGKPGRKRKRKYAGPHSQMKKKQRLTSTSHDATEKSDSSTSLNNSSLPDIPDPLDLSGSSLLNRDVEAKNAYVSNQVEANSGSVGMARQVRLIDNEKEYDPTLNELRGPVNNSNGAGCSQGGGIGSEGDNVRPNGLLKVYPKELDKNSRFIGAKRRKSGSVKRFKQDGSTSNNHTAPTDQNLTPDLTTLDSFGRIARMGNEYPGVMENCNLSQKTKIEELDITKILKPMSFTASVSDNVQEVLVTFLALRSDGKEALVDNRFLKAHNPHLLIEFYEQHLKYNRTP
For B1, the binding result in assay [2] and in assay [3] was “binds” throughout.
